This is one part of the list.
Assays:
Experiment in all cases: log2 fold change, soluble protein after heating vs DMSO (PISA); higher = thermal stabilisation; K562 lysate, 10 uM; active = over 0.2 and 3.5 SD of the protein, either way, in both replicates (recomputed)
nilotinib = compound: Cc1cn(-c2cc(NC(=O)c3ccc(C)c(Nc4nccc(-c5cccnc5)n4)c3)cc(C(F)(F)F)c2)cn1 [nilotinib]
Outline: (§1)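 Thermal stability, expressed as log-two fold change relative to solvent controls, is given from duplicates. Crude K562 extract in PBS pH 7.4 with 1 mM MgCl2, at 1 mg/mL protein, was treated with 10 μM compound for 30 min and heated in aliquots for 3 min across 48°C-58°C. After pooling, adjustment to 0.5% NP-40 at 4°C and centrifugation at 21,000xg for 90 min, supernatant protein was measured by TMTpro 16plex LC-MS/MS with channel sums equalised.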

By UniProt entry, the sequences of proteins in these tests, tags left out. Where a name states a change or a piece, a line headed by the entry shows the natural chain unless it says otherwise.
UniProt P22307: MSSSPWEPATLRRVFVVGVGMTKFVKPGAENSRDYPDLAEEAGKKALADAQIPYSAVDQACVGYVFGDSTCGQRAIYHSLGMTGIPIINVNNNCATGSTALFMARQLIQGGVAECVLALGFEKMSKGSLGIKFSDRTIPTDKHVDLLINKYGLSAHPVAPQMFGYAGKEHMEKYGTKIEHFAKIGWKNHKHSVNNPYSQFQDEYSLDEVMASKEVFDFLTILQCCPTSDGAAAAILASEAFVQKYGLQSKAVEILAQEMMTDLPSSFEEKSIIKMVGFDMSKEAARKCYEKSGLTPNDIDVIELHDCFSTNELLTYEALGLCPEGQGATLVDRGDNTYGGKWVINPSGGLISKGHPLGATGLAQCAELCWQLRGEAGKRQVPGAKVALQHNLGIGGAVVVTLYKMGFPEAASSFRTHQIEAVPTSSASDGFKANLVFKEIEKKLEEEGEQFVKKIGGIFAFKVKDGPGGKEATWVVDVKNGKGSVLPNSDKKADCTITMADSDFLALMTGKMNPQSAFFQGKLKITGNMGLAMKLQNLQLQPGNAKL
UniProt O95487: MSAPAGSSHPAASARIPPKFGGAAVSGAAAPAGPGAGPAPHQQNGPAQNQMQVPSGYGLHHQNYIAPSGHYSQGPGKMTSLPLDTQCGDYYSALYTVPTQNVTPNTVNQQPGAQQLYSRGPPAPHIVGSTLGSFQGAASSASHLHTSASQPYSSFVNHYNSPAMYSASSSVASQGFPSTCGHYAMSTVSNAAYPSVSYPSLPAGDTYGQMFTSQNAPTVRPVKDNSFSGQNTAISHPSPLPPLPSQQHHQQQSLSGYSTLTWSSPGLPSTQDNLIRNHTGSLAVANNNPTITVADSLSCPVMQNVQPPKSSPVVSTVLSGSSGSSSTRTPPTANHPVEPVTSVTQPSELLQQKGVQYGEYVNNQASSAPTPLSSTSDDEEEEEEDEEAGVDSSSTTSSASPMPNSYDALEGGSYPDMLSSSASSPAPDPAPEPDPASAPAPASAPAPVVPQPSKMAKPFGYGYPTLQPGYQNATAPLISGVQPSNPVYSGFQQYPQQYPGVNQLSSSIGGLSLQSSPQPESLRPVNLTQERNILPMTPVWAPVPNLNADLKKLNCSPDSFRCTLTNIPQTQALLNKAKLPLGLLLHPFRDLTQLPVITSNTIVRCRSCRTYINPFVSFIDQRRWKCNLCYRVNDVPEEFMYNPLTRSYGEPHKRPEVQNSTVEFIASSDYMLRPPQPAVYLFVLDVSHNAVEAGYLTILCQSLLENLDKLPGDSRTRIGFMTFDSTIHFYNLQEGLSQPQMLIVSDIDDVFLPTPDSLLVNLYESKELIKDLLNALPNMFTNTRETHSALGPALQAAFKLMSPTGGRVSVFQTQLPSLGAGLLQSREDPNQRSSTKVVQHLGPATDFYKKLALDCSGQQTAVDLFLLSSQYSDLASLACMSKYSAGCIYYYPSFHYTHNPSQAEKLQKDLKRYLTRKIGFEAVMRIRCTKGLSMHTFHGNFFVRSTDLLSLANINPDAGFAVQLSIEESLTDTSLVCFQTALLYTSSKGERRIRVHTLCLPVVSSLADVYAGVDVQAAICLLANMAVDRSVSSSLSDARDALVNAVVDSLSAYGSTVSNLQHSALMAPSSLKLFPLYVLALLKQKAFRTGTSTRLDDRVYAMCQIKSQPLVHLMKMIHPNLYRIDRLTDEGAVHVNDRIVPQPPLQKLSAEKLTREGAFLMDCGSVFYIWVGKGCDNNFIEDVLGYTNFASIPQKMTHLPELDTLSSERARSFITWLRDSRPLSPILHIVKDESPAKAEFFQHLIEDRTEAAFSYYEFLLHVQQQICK
UniProt Q96HI0: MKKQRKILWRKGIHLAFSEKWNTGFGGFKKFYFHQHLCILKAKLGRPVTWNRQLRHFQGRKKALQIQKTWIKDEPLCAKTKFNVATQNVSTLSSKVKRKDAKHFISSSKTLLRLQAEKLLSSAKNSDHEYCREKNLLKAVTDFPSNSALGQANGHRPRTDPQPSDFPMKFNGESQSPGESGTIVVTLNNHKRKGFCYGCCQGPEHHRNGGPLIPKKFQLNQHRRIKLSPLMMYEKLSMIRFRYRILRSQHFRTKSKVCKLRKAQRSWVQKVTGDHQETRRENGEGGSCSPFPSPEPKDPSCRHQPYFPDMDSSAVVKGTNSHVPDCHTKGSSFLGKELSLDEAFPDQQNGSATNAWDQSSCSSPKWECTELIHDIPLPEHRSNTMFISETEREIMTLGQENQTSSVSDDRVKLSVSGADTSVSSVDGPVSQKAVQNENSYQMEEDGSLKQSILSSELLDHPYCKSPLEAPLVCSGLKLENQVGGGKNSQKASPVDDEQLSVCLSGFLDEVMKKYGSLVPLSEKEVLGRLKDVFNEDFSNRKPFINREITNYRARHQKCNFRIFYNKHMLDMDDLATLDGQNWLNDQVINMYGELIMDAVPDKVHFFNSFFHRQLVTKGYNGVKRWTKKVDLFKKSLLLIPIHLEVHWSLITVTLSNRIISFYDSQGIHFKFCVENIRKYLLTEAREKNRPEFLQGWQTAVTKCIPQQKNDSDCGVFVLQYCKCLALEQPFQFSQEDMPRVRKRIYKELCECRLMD
UniProt P60468, whole entry, looked up: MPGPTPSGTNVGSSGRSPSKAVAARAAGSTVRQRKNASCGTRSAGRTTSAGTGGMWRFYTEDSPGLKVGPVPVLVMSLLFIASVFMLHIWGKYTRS
UniProt Q9NRP4: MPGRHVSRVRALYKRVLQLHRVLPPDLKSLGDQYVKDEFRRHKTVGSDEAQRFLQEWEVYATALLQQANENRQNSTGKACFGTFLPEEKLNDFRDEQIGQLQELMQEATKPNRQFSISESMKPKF
UniProt Q96KG9: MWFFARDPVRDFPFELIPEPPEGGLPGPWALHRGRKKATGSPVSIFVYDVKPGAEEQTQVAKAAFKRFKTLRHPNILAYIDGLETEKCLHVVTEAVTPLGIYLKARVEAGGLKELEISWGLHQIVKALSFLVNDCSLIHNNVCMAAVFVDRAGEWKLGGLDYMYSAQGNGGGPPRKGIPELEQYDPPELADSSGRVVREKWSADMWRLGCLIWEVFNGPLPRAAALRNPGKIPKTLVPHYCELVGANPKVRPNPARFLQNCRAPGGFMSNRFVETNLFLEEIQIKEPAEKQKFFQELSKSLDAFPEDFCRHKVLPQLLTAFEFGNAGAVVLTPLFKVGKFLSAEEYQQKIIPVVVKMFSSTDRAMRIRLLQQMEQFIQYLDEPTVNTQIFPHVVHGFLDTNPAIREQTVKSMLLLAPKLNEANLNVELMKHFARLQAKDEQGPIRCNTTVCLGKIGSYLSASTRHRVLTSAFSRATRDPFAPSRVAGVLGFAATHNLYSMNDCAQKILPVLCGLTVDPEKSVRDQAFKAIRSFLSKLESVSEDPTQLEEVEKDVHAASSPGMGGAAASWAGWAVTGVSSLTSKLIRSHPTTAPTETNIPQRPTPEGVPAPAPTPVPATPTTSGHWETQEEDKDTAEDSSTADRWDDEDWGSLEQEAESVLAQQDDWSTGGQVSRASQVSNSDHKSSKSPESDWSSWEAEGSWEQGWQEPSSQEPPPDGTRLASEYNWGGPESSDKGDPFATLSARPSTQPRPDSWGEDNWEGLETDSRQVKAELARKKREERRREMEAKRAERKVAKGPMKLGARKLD
UniProt O00422: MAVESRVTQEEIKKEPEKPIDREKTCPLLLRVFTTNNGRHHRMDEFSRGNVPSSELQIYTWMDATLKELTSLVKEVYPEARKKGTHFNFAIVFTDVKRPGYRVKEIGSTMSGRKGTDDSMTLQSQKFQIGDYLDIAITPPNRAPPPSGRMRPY
UniProt Q9UBV2: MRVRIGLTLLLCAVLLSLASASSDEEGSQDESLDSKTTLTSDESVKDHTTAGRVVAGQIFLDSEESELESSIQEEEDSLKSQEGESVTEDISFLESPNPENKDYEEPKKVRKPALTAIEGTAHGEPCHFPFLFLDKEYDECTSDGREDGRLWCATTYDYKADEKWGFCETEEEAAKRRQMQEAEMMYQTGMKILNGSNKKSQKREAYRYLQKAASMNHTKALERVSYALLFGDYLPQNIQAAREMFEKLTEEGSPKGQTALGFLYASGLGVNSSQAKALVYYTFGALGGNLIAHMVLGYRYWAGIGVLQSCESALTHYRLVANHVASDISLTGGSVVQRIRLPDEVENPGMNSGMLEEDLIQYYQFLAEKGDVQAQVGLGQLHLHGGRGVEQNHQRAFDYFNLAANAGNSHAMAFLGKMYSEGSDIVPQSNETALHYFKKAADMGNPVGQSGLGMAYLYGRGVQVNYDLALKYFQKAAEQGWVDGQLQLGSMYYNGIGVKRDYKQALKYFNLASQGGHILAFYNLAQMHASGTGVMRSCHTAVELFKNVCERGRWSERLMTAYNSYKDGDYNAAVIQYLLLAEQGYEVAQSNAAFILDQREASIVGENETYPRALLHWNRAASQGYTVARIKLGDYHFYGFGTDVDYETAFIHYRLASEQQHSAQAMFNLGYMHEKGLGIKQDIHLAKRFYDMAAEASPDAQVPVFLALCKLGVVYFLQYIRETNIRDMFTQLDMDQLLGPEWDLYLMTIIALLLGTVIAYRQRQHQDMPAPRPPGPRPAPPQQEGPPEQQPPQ
UniProt Q9Y512: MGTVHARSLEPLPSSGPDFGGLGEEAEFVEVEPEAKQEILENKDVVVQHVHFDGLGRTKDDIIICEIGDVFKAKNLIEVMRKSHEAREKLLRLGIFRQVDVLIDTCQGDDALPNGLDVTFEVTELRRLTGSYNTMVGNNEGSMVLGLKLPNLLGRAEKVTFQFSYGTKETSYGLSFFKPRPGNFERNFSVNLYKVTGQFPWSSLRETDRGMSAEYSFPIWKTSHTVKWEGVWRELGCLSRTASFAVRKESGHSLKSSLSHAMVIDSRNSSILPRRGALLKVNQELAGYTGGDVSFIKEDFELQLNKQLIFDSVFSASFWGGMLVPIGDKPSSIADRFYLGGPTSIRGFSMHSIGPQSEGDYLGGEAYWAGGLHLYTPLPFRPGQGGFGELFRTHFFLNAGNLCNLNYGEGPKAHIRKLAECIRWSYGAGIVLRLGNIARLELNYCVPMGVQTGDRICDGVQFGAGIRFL
UniProt Q86SQ7: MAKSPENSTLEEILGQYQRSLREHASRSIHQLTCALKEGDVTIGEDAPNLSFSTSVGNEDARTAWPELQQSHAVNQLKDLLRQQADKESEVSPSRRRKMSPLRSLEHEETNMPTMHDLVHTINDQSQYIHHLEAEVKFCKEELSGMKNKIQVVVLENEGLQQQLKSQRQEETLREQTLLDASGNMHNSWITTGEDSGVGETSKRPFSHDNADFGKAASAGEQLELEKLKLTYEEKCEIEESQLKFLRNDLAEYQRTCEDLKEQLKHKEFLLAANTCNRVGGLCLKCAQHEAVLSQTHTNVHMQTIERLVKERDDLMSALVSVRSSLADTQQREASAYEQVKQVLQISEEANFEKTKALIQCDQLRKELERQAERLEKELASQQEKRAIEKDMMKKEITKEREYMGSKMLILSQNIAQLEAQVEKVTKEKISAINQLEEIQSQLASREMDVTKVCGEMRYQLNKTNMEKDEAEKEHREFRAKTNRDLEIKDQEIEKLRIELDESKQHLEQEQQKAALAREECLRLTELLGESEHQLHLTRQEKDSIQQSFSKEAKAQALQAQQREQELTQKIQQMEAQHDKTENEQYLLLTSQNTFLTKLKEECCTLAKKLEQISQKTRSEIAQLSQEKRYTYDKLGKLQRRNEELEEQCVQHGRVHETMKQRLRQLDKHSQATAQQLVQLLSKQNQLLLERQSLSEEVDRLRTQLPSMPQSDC
UniProt Q9NSI8: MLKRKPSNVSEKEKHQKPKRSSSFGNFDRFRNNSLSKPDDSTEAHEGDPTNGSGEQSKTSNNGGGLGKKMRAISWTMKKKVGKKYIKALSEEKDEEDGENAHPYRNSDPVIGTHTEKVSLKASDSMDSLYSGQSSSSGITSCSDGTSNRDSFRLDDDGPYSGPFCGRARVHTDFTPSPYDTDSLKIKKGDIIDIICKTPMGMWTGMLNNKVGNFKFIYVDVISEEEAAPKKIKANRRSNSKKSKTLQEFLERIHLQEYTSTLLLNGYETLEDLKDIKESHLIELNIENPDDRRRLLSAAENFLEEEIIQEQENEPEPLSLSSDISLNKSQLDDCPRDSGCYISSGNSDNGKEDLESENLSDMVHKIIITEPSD
UniProt Q96FV2: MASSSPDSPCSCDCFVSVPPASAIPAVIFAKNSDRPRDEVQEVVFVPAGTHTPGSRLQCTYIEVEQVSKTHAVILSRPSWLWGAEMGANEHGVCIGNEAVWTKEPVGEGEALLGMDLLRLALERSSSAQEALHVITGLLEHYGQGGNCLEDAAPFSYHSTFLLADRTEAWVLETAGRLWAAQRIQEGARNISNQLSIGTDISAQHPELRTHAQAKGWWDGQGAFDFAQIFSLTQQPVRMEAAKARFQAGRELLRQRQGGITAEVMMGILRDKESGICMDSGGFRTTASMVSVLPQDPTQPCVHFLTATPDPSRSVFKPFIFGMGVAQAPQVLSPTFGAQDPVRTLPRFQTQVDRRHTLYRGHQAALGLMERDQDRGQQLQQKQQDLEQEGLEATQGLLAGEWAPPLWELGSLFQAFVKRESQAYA

[1] = compound: Cc1nc(Nc2n[nH]c3c2CN(C(=O)N[C@H](CN(C)C)c2ccccc2)C3(C)C)c2sccc2n1
Outline: as §1

dasatinib = compound: Cc1nc(Nc2ncc(C(=O)Nc3c(C)cccc3Cl)s2)cc(N2CCN(CCO)CC2)n1 [dasatinib]
Outline: as §1

[2] = compound: Cc1ncc(-c2ccnc(Nc3ccc(S(C)(=O)=O)cc3)n2)n1C(C)C
Outline: as §1

[3] = compound: Cn1cc(-c2ccc3c(c2)CCN3C(=O)Cc2cccc(C(F)(F)F)c2)c2c(N)ncnc21
Outline: as §1

quisinostat = compound: Cn1cc(CNCC2CCN(c3ncc(C(=O)NO)cn3)CC2)c2ccccc21 [quisinostat]
Outline: as §1

tipifarnib = compound: Cn1cncc1[C@@](N)(c1ccc(Cl)cc1)c1ccc2c(c1)c(-c1cccc(Cl)c1)cc(=O)n2C [tipifarnib]
Outline: as §1

[4] = compound: NC(=O)Nc1cc(-c2cccc(F)c2)sc1C(=O)N[C@H]1CCCNC1
Outline: as §1

[5] = compound: NC(=O)c1cnc(N[C@@H]2CCCC[C@@H]2N)nc1Nc1cccc(-n2nccn2)c1
Outline: as §1

[6] = compound: NC1(c2ccc(-c3nc4ccn5c(=O)[nH]nc5c4cc3-c3ccccc3)cc2)CCC1
Outline: as §1

[7] = compound: NCC(=O)Nc1ccc(-n2nc(C(F)(F)F)cc2-c2ccc3c(ccc4ccccc43)c2)cc1
Outline: as §1

vorinostat = compound: O=C(CCCCCCC(=O)Nc1ccccc1)NO [vorinostat]
Outline: as §1

silmitasertib = compound: O=C(O)c1ccc2c(c1)nc(Nc1cccc(Cl)c1)c1ccncc12 [silmitasertib]
Outline: as §1

[8] = compound: O=C1NC(=O)C(c2cnc3ccccn23)=C1c1cn2c3c(cc(F)cc13)CN(C(=O)N1CCCCC1)CC2
Outline: as §1

entospletinib = compound: c1cn2cc(-c3ccc4cn[nH]c4c3)nc(Nc3ccc(N4CCOCC4)cc3)c2n1 [entospletinib]
Outline: as §1

Measured: log2 fold change

SCAMP1 (UniProt O15126)
inactive: nilotinib -0.037 | [1] -0.003 | dasatinib 0.013 | [2] -0.038 | [3] -0.03 | quisinostat -0.034 | tipifarnib -0.012 | [4] 0.032 | [5] 0.001 | [6] -0.063 | [7] 0.023 | vorinostat 0.055 | silmitasertib -0.03 | [8] 0.218 | entospletinib -0.03

SEC11C (UniProt Q9BY50)
inactive: nilotinib -0.012 | [1] -0.015 | dasatinib -0.078 | [2] 0.026 | [3] -0.025 | quisinostat -0.195 | tipifarnib -0.01 | [4] 0.001 | [5] 0.05 | [6] 0.061 | [7] 0.108 | vorinostat 0.106 | silmitasertib -0.062 | [8] -0.039

SEPTIN5 (UniProt Q99719)
inactive: nilotinib 0.024 | [1] 0.019 | dasatinib -0.007 | [2] -0.028 | [3] -0.054 | quisinostat -0.018 | tipifarnib 0.038 | [4] -0.014 | [5] -0.022 | [6] 0.001 | [7] -0.008 | vorinostat 0.005 | silmitasertib 0.011 | [8] -0.028 | entospletinib 0.009

SCP2 (UniProt P22307)
inactive: nilotinib 0.022 | [1] -0.021 | dasatinib 0.053 | [2] -0.001 | [3] -0.021 | quisinostat 0 | tipifarnib 0.004 | [4] -0.002 | [5] -0.013 | [6] 0.006 | [7] -0.011 | vorinostat 0.132 | silmitasertib -0.037 | [8] 0 | entospletinib 0

SEC24B isoform 3 (UniProt O95487)
inactive: nilotinib 0.013 | [1] -0.038 | dasatinib -0.068 | [2] -0.002 | [3] 0.007 | quisinostat -0.02 | tipifarnib -0.022 | [4] 0.037 | [5] 0.002 | [6] 0.015 | [7] 0.004 | vorinostat -0.162 | silmitasertib 0.029 | [8] -0.016 | entospletinib 0.019

SDHB, A0A087WWT1
inactive: nilotinib -0.067 | [1] 0.074 | dasatinib -0.393 | [2] -0.015 | [3] 0.138 | quisinostat -0.085 | tipifarnib 0.075 | [4] -0.094 | [5] 0.007 | [6] 0.014 | [7] -0.079 | vorinostat -0.094 | silmitasertib -0.293 | [8] -0.036 | entospletinib 0.12

SEC31A (UniProt D6REX3)
inactive: nilotinib 0.008 | [1] -0.002 | dasatinib -0.012 | [2] -0.009 | [3] 0.028 | quisinostat -0.014 | tipifarnib 0.005 | [4] -0.009 | [5] 0.009 | [6] 0.016 | [7] -0.025 | vorinostat 0.017 | silmitasertib 0.007 | [8] -0.003 | entospletinib 0.008

SENP5 (UniProt Q96HI0)
inactive: nilotinib -0.022 | [1] -0.025 | dasatinib -0.07 | [2] -0.016 | [3] -0.122 | quisinostat -0.047 | tipifarnib 0.02 | [4] 0.085 | [5] 0.057 | [6] -0.079 | [7] 0.036 | vorinostat -0.185 | silmitasertib 0.151 | [8] 0.002 | entospletinib 0.036

SCAF11 (UniProt Q99590)
inactive: nilotinib -0.067 | [1] 0.019 | dasatinib 0.003 | [2] -0.024 | [3] -0.003 | quisinostat -0.013 | tipifarnib -0.046 | [4] -0.044 | [5] 0.001 | [6] 0 | [7] 0.066 | vorinostat 0.045 | silmitasertib -0.039 | [8] -0.073 | entospletinib -0.014

SEC61B (UniProt P60468)
inactive: nilotinib -0.056 | [1] 0.031 | dasatinib 0.084 | [2] -0.053 | [3] -0.039 | quisinostat 0.088 | tipifarnib -0.024 | [4] -0.043 | [5] 0.014 | [6] -0.008 | [7] -0.04 | vorinostat 0.145 | silmitasertib 0.047 | [8] -0.158 | entospletinib 0.017

SART3, A0A499FI31
inactive: nilotinib -0.019 | [1] 0.006 | dasatinib 0.015 | [2] -0.002 | [3] 0.006 | quisinostat -0.027 | tipifarnib -0.003 | [4] 0.013 | [5] -0.026 | [6] 0.012 | [7] -0.019 | vorinostat -0.142 | silmitasertib 0.014 | [8] -0.003 | entospletinib 0.022

SCAF8 (UniProt Q9UPN6)
inactive: nilotinib 0.003 | [1] -0.048 | dasatinib -0.07 | [2] 0.028 | [3] 0.018 | quisinostat 0 | tipifarnib -0.044 | [4] 0.039 | [5] 0.002 | [6] 0.005 | [7] -0.003 | vorinostat -0.159 | silmitasertib 0.011 | [8] 0.01 | entospletinib -0.016

SDHAF3 (UniProt Q9NRP4)
inactive: nilotinib 0.015 | [1] 0.018 | dasatinib -0.05 | [2] 0.033 | [3] 0.093 | quisinostat -0.015 | tipifarnib -0.042 | [4] 0.033 | [5] 0.009 | [6] 0.121 | [7] -0.079 | vorinostat -0.199 | silmitasertib -0.02 | [8] -0.052 | entospletinib 0.001

SCYL1 (UniProt Q96KG9)
inactive: nilotinib 0.041 | [1] 0.006 | dasatinib 0.012 | [2] 0.019 | [3] 0.001 | quisinostat -0.006 | tipifarnib -0.036 | [4] -0.004 | [5] 0.002 | [6] 0.008 | [7] 0.004 | vorinostat -0.033 | silmitasertib -0.01 | [8] -0.014 | entospletinib 0.016

Pulled one by one from the entries so far (2):
SDHAF3 (UniProt Q9NRP4)
inactive: nilotinib 0.015 | [1] 0.018 | dasatinib -0.05 | [2] 0.033 | [3] 0.093 | quisinostat -0.015 | tipifarnib -0.042 | [4] 0.033 | [5] 0.009 | [6] 0.121 | [7] -0.079 | vorinostat -0.199 | silmitasertib -0.02 | [8] -0.052 | entospletinib 0.001

SART3, A0A499FI31
inactive: nilotinib -0.019 | [1] 0.006 | dasatinib 0.015 | [2] -0.002 | [3] 0.006 | quisinostat -0.027 | tipifarnib -0.003 | [4] 0.013 | [5] -0.026 | [6] 0.012 | [7] -0.019 | vorinostat -0.142 | silmitasertib 0.014 | [8] -0.003 | entospletinib 0.022

(further entries)

SAP18 isoform 2 (UniProt O00422)
inactive: nilotinib 0.007 | [1] 0.003 | dasatinib 0 | [2] -0.04 | [3] 0.013 | quisinostat -0.061 | tipifarnib -0.011 | [4] -0.029 | [5] 0.052 | [6] -0.02 | [7] 0.033 | vorinostat 0.024 | silmitasertib 0.057 | [8] 0.015 | entospletinib 0.037

SCAF4 (UniProt O95104)
inactive: nilotinib -0.031 | [1] 0.007 | dasatinib -0.044 | [2] 0.059 | [3] 0.012 | quisinostat -0.081 | tipifarnib -0.068 | [4] 0.025 | [5] 0 | [6] 0.034 | [7] 0.036 | vorinostat -0.071 | silmitasertib -0.026 | [8] -0.005 | entospletinib -0.006

SEL1L (UniProt Q9UBV2)
inactive: nilotinib -0.069 | [1] 0.016 | dasatinib -0.032 | [2] -0.039 | [3] 0.006 | quisinostat -0.003 | tipifarnib -0.108 | [4] 0.014 | [5] 0.007 | [6] 0.01 | [7] 0.023 | vorinostat 0.083 | silmitasertib 0.031 | [8] 0.016 | entospletinib -0.012

SAMM50 (UniProt Q9Y512)
inactive: nilotinib -0.004 | [1] 0.007 | dasatinib 0.03 | [2] 0.011 | [3] -0.01 | quisinostat 0.016 | tipifarnib -0.031 | [4] -0.019 | [5] -0.004 | [6] -0.021 | [7] -0.002 | vorinostat -0.001 | silmitasertib 0.014 | [8] -0.01 | entospletinib 0.009

SDCCAG8 (UniProt Q86SQ7)
inactive: nilotinib 0.098 | [1] -0.075 | dasatinib -0.03 | [2] -0.016 | [3] 0.045 | quisinostat 0.003 | tipifarnib 0.131 | [4] -0.02 | [5] -0.096 | [6] -0.002 | [7] 0.059 | vorinostat -0.075 | silmitasertib 0.023 | [8] 0.027 | entospletinib -0.018

SAMSN1 (UniProt Q9NSI8)
inactive: nilotinib -0.021 | [1] -0.008 | dasatinib -0.007 | [2] -0.021 | [3] 0.009 | quisinostat -0.058 | tipifarnib 0.027 | [4] -0.024 | [5] 0.006 | [6] 0.016 | [7] 0.003 | vorinostat 0.04 | silmitasertib -0.001 | [8] -0.011 | entospletinib 0.002

SCRN2 (UniProt Q96FV2)
inactive: nilotinib -0.138 | [1] 0.068 | dasatinib -0.052 | [2] -0.095 | [3] 0.061 | quisinostat -0.067 | tipifarnib -0.1 | [4] 0.001 | [5] -0.021 | [6] 0.001 | [7] 0.004 | vorinostat 0.345 | silmitasertib -0.125 | [8] -0.038 | entospletinib 0.024
